Holding throughout (assay): log2 fold change, soluble protein after heating vs DMSO (PISA); higher = thermal stabilisation; K562 lysate, 10 uM; active = over 0.2 and 3.5 SD of the protein, either way, in both replicates (recomputed)
Compound in one experiment: C#Cc1cccc(Nc2ncnc3cc(OCCOC)c(OCCOC)cc23)c1 [erlotinib]
The procedure, abridged: (§1)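 Pellets of K562 cells were dounce-homogenised in PBS pH 7.4 with 1 mM MgCl2, and the crude extract was held at 1 mg/mL protein for a 30 min treatment with 10 μM compound. Aliquots were heated for 3 min over 48°C-58°C and pooled before NP-40 was added to 0.5% at 4°C. The supernatant from 21,000xg for 90 min was quantified by TMTpro 16plex LC-MS/MS with channel sums equalised. Values are reported from duplicates as log-two fold change in thermal stability relative to solvent controls.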

Protein sequences, listed by entry. Tags and fused reporters are not part of them. Lines headed by an entry give the natural chain unless they say otherwise; changes in a name come on top.
UniProt P54687: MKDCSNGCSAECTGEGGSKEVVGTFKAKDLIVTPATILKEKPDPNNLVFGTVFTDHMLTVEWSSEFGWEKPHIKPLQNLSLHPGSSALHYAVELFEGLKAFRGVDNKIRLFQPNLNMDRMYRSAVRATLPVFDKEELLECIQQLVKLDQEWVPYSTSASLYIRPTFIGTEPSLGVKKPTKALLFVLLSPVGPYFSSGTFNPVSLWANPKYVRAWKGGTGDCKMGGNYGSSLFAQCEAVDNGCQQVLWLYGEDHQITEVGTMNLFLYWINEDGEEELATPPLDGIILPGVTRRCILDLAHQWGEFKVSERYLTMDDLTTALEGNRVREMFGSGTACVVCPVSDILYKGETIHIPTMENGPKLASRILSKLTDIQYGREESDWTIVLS
UniProt P15291: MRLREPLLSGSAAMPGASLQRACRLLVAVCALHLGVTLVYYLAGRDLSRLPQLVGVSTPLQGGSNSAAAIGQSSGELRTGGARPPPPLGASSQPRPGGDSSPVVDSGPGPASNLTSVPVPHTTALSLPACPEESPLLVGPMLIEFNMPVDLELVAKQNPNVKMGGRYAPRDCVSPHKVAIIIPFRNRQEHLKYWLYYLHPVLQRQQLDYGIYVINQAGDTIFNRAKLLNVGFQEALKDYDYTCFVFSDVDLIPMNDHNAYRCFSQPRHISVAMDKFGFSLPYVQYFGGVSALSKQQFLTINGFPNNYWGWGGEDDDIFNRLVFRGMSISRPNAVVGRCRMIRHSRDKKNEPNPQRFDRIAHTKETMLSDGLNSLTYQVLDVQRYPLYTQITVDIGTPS
UniProt P38398, whole entry, looked up: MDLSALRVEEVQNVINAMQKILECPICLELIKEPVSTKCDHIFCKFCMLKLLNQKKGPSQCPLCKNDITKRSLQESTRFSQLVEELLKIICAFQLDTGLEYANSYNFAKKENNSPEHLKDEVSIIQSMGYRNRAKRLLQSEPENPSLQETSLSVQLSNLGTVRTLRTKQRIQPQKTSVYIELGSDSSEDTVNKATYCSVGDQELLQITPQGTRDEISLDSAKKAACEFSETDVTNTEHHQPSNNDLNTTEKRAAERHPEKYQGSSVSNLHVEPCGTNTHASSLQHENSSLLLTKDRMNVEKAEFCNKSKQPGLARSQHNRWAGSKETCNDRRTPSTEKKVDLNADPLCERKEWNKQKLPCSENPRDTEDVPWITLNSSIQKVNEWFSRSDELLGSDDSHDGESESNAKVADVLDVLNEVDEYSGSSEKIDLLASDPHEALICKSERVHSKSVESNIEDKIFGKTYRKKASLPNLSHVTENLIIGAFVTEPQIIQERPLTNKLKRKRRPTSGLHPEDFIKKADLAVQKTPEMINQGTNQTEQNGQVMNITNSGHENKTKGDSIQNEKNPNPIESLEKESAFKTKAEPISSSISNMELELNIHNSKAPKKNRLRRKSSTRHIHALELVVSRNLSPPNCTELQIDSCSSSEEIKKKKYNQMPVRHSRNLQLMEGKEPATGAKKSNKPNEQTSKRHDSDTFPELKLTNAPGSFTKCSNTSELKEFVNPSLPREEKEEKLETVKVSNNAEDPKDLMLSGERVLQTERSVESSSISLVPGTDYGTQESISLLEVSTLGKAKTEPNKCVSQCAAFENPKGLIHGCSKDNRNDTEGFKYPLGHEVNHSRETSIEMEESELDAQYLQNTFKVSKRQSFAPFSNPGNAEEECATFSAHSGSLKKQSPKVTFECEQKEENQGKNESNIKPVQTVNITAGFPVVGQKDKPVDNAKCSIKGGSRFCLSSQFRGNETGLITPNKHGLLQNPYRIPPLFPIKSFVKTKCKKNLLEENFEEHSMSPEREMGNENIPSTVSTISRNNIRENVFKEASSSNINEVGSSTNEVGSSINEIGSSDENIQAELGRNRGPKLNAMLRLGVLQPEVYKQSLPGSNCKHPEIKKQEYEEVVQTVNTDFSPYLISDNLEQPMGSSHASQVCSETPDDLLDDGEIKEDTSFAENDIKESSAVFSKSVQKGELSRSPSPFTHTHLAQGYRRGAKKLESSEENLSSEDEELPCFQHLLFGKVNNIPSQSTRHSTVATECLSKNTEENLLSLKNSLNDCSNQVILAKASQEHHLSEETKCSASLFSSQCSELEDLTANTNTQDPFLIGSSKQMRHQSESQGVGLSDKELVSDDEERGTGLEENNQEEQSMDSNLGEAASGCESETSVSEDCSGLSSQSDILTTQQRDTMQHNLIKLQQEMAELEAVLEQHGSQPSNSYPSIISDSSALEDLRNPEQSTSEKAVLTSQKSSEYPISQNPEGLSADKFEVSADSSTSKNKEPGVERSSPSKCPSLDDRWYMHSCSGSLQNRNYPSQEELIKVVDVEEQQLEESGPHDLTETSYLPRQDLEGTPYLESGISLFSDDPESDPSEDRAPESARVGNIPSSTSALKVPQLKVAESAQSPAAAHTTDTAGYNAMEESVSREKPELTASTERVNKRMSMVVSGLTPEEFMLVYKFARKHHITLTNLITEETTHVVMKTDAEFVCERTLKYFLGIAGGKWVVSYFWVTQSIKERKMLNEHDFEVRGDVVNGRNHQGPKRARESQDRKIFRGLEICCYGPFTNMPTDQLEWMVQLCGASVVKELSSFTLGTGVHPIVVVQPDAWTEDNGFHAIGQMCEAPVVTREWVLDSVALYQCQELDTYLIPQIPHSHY
UniProt Q10589, whole entry, looked up: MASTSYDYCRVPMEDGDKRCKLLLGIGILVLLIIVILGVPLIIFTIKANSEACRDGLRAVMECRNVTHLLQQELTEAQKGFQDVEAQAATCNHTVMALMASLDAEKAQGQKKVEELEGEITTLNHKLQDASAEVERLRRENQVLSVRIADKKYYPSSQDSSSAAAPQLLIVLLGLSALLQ
UniProt O95999: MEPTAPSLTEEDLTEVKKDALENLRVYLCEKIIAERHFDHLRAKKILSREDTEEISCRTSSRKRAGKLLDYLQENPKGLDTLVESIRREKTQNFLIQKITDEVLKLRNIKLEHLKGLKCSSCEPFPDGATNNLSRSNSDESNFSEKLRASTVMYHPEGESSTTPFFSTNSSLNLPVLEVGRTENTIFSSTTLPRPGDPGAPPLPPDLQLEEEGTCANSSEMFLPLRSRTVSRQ
UniProt Q8NFC6: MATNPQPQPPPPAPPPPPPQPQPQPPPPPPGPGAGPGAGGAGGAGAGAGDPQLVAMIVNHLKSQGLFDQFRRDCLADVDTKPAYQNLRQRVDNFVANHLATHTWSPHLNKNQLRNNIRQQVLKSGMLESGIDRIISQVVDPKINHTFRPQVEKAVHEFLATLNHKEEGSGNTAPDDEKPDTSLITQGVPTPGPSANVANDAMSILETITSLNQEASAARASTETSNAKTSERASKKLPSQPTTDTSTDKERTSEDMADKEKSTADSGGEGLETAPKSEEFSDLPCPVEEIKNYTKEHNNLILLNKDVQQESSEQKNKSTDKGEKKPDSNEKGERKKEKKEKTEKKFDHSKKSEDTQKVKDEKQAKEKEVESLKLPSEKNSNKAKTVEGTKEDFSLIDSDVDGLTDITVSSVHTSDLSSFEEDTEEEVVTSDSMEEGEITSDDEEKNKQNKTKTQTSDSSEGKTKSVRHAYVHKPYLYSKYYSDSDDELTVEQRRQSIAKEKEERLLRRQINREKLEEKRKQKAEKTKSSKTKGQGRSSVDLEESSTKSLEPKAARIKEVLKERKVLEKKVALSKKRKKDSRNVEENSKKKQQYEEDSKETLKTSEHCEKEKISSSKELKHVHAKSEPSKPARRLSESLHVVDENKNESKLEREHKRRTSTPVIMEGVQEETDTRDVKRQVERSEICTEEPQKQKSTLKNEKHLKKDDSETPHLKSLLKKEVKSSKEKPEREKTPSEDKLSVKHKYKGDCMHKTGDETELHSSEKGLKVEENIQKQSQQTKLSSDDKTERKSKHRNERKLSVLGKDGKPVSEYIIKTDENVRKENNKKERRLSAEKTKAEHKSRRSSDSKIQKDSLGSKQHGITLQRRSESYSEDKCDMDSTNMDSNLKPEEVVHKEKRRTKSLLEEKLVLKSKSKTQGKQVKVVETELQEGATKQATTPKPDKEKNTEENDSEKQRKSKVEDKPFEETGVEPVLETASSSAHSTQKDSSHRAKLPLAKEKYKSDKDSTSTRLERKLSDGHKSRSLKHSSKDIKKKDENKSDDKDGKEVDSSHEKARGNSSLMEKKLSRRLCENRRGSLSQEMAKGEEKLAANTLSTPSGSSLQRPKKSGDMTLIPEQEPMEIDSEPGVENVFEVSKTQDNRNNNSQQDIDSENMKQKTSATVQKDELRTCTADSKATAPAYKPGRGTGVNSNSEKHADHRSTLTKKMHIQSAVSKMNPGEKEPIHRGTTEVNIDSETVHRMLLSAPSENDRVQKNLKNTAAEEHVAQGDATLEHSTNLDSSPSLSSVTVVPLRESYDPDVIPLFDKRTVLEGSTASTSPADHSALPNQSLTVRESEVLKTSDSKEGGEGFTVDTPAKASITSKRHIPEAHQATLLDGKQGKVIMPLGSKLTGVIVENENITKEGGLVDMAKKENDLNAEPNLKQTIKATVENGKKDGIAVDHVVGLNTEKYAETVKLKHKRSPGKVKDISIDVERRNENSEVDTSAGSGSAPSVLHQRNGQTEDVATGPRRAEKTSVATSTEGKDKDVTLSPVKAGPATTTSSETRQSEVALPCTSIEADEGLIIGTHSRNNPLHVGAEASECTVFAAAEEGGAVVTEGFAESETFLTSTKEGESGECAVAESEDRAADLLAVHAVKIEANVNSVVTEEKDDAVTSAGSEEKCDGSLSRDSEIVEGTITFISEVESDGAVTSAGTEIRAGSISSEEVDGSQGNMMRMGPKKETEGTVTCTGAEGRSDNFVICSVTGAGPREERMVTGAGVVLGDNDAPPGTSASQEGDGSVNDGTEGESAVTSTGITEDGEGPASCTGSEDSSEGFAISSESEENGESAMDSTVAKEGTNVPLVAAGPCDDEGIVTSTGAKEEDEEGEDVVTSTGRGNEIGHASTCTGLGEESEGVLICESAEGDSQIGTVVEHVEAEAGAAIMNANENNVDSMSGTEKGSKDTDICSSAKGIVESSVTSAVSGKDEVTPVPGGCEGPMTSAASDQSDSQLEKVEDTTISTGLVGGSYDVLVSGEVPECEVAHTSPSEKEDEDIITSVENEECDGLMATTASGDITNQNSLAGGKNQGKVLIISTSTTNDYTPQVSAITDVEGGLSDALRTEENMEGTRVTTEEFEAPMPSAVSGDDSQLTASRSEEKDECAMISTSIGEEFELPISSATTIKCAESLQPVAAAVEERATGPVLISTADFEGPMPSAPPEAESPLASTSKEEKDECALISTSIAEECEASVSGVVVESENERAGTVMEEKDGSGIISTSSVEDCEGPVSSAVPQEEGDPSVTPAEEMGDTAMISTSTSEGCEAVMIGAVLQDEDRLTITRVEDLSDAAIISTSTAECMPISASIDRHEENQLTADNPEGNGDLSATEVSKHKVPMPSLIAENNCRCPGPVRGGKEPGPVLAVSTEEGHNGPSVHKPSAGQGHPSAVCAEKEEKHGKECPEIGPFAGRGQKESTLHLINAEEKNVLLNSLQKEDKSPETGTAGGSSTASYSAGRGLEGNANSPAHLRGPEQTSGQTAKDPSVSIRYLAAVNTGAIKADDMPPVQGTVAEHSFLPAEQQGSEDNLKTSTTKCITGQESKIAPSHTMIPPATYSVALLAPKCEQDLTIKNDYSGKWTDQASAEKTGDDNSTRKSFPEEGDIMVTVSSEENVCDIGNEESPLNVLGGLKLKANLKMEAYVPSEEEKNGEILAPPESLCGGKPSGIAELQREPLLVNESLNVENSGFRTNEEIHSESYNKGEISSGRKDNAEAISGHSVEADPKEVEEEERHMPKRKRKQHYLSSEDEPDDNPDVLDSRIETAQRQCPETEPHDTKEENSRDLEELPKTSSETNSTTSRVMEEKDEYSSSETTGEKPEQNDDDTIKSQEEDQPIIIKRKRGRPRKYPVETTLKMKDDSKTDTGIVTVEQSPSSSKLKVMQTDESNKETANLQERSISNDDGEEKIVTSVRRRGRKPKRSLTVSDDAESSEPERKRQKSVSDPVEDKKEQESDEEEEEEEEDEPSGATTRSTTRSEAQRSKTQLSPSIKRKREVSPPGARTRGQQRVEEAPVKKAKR
UniProt Q07812, whole entry, looked up: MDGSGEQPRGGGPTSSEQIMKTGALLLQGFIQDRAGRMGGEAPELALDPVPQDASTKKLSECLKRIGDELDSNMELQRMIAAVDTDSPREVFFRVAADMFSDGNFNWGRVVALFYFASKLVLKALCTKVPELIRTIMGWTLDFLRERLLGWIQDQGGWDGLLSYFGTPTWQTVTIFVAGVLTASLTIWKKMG
UniProt P55957: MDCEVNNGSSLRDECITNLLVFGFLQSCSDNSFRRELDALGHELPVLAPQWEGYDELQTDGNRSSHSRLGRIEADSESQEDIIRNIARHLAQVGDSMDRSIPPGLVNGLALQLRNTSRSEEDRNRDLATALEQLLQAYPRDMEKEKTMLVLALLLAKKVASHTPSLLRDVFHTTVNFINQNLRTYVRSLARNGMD

Compound in experiment [1]: C/C(=N\NC(=O)C1=CC(=CC=C1)S(=O)(=O)N2CCOCC2)/C3=C(C=CC(=C3)Cl)O
The procedure, abridged: as §1

Compound in experiment [2]: C1=CC(=CC=C1C2=NC3=C(N2)C=C(C=C3)C(=O)N)OC4=CC=C(C=C4)Cl
The procedure, abridged: as §1

Compound in experiment [3]: C1=CC2=C(C=CC(=C2)/C=C\3/C(=O)NC(=NCC4=CC=CS4)S3)N=C1
The procedure, abridged: as §1

Compound in experiment [4]: C1=CC2=NC=CN=C2C=C1/C=C/3\C(=O)NC(=O)S3
The procedure, abridged:
as §1

Compound in experiment [5]: C1=CC=C(C=C1)C2=NC(=C(N2)C3=CC=NC=C3)C4=CC(=C(C=C4)Cl)O
The gist of the method: as §1

Compound in experiment [6]: C1=CC=C2C(=C1)C3=NNC4=CC=CC(=C43)C2=O
The gist of the method: as §1

Compound in experiment [7]: C1CCN(C1)C(=O)NC2=CC=CC(=C2)NC3=NC=C(C(=N3)NCCC4=CN=CN4)Br
The gist of the method: as §1

Compound in experiment [8]: C1CN(CCC1(CC2=CC=C(C=C2)Cl)N)C3=NC=NC4=C3C=CN4
The procedure, abridged: as §1

Compound in a further experiment: C1COCCN1CCN2C3=CC=CC=C3N=C2NC(=O)C4=CC(=CC=C4)[N+](=O)[O-] [IRAK-1-4 Inhibitor I]
The procedure, abridged: as §1

The other results are listed elsewhere or left out.

With BCAT1 (UniProt P54687), the log2 fold change is inactive: -0.007 in the experiment with erlotinib; inactive: 0.034 in experiment [1]; inactive: 0.028 in [2]; inactive: -0.015 in [3]; inactive: 0.009 in experiment [4]; inactive: -0.001 in experiment [5]. Further, the log2 fold change in [6] is inactive: 0.003; in experiment [7], inactive: -0.008; in experiment [8] it was inactive: 0.01; in the experiment with IRAK-1-4 Inhibitor I, inactive: 0.033.

Take B4GALT1 (UniProt P15291): the log2 fold change with erlotinib was inactive: -0.03; in experiment [1], inactive: 0.052; in experiment [2], inactive: -0.037; in experiment [3], inactive: -0.123; in experiment [4], inactive: -0.059; in experiment [5], inactive: -0.018. In addition, the log2 fold change was inactive: -0.012 in experiment [6], inactive: 0.006 in experiment [7], inactive: 0.003 in experiment [8] and inactive: 0.061 in the experiment with IRAK-1-4 Inhibitor I.

For the target BRCA1 isoform 7 (UniProt P38398), the log2 fold change with erlotinib is inactive: 0.003; in [1], inactive: 0.05; in experiment [2] it was inactive: 0.021; in experiment [3] it was inactive: -0.029; in experiment [4], inactive: -0.041; in experiment [5], inactive: -0.009. The log2 fold change in experiment [6] is inactive: -0.009; in [7], inactive: -0.035; in [8], inactive: 0; with IRAK-1-4 Inhibitor I it was inactive: 0.053.

Regarding BSG (UniProt P35613), the log2 fold change was inactive: -0.037 with erlotinib; inactive: 0.001 in experiment [1]; inactive: -0.014 in [2]; inactive: 0.028 in experiment [3]; inactive: 0.038 in experiment [4]; inactive: -0.008 in experiment [5]. Besides, the log2 fold change in experiment [6] was inactive: 0.001; in experiment [7] it was inactive: 0.014; in experiment [8] it was inactive: -0.022; in the experiment with IRAK-1-4 Inhibitor I, inactive: -0.028.

As to BCOR (UniProt Q6W2J9), the log2 fold change was inactive: 0.053 with erlotinib; inactive: 0.069 in experiment [1]; inactive: 0.038 in experiment [2]; inactive: 0 in experiment [3]; inactive: -0.076 in [4]; inactive: -0.032 in experiment [5]. Further, the log2 fold change was inactive: 0.01 in experiment [6], inactive: -0.049 in experiment [7], inactive: -0.007 in [8] and inactive: -0.033 in the experiment with IRAK-1-4 Inhibitor I.

For the target BST2 (UniProt Q10589), the log2 fold change in the experiment with erlotinib was inactive: -0.061; in [1], inactive: -0.003; in experiment [2], inactive: 0.011; in experiment [3] it was inactive: 0.011; in experiment [4], inactive: -0.003; in experiment [5], inactive: -0.056. Besides, the log2 fold change was inactive: 0.039 in experiment [6], inactive: -0.018 in [7], inactive: 0.03 in [8] and inactive: -0.007 with IRAK-1-4 Inhibitor I.

With BMP2K (UniProt Q9NSY1), the log2 fold change in the experiment with erlotinib was inactive: 0.179; in experiment [1], inactive: -0.105; in [2] it was inactive: -0.07; in experiment [3], inactive: 0.581; in experiment [4], inactive: 0.241; in [5], inactive: -0.002. Moreover, the log2 fold change in [6] was inactive: 0.672; in [7] it was inactive: 0.477; in [8], inactive: -0.062; in the experiment with IRAK-1-4 Inhibitor I it was inactive: 0.61.

For BCL10 (UniProt O95999), the log2 fold change with erlotinib was inactive: -0.031; in experiment [1] it was inactive: -0.044; in experiment [2], inactive: -0.032; in experiment [3], inactive: 0.037; in experiment [4], inactive: -0.017; in experiment [5] it was inactive: 0.041. In addition, the log2 fold change is inactive: 0.019 in experiment [6], inactive: 0.008 in experiment [7], inactive: -0.029 in experiment [8] and inactive: -0.02 with IRAK-1-4 Inhibitor I.

Consider BRCA2 (UniProt P51587), for which the log2 fold change with erlotinib was inactive: -0.066; in experiment [1] it was inactive: -0.08; in [2], inactive: -0.221; in experiment [3], inactive: -0.037; in experiment [4], inactive: 0.014; in [5] it was inactive: 0.001. Also, the log2 fold change is inactive: -0.107 in experiment [6], inactive: -0.087 in [7], inactive: 0.111 in experiment [8] and inactive: 0.106 with IRAK-1-4 Inhibitor I.

BTK isoform 2 (UniProt Q06187): the log2 fold change was inactive: 0.002 with erlotinib; inactive: 0.017 in experiment [1]; inactive: -0.046 in experiment [2]; inactive: 0.031 in experiment [3]; inactive: 0.025 in experiment [4]; inactive: -0.005 in experiment [5]. Besides, the log2 fold change in experiment [6] is inactive: -0.05; in experiment [7] it was inactive: 0.077; in experiment [8], inactive: -0.052; with IRAK-1-4 Inhibitor I, inactive: -0.017.

For BOD1L1 (UniProt Q8NFC6), the log2 fold change with erlotinib was inactive: -0.015; in [1] it was inactive: -0.011; in experiment [2], inactive: 0.05; in experiment [3], inactive: 0.006; in experiment [4] it was inactive: -0.021; in experiment [5], inactive: -0.002. Also, the log2 fold change in experiment [6] is inactive: -0.016; in experiment [7], inactive: -0.006; in experiment [8], inactive: -0.001; in the experiment with IRAK-1-4 Inhibitor I, inactive: 0.001.

Take BLMH (UniProt Q13867): the log2 fold change is inactive: -0.003 in the experiment with erlotinib; inactive: -0.02 in experiment [1]; inactive: 0.027 in experiment [2]; inactive: 0.003 in [3]; inactive: 0.042 in experiment [4]; inactive: -0.003 in experiment [5]. Moreover, the log2 fold change in [6] is inactive: -0.002; in [7], inactive: -0.019; in experiment [8], inactive: 0.001; in the experiment with IRAK-1-4 Inhibitor I, inactive: 0.025.

Turning to BAX isoform 2 (UniProt Q07812), the log2 fold change with erlotinib was inactive: -0.018; in [1], inactive: -0.032; in experiment [2], inactive: 0.047; in experiment [3], inactive: -0.043; in experiment [4], inactive: -0.046; in [5], inactive: -0.025. For the same target, the log2 fold change in experiment [6] was inactive: -0.014; in [7], inactive: -0.037; in experiment [8] it was inactive: -0.011; in the experiment with IRAK-1-4 Inhibitor I it was inactive: 0.05.

For BID isoform 2 (UniProt P55957), the log2 fold change is inactive: -0.016 with erlotinib; inactive: -0.019 in experiment [1]; inactive: 0.015 in [2]; inactive: 0.013 in experiment [3]; inactive: 0.087 in [4]; inactive: 0.01 in experiment [5]. For the same target, the log2 fold change in experiment [6] was inactive: -0.007; in experiment [7] it was inactive: -0.009; in experiment [8], inactive: 0.048; with IRAK-1-4 Inhibitor I, inactive: 0.024.

Regarding BPHL (UniProt Q86WA6), the log2 fold change in the experiment with erlotinib was inactive: -0.054; in experiment [1] it was active: -0.445; in experiment [2], inactive: 0.033; in experiment [3], inactive: 0.089; in [4], inactive: -0.135; in experiment [5], inactive: -0.071. Also, the log2 fold change in experiment [6] is inactive: 0.118; in experiment [7] it was inactive: -0.063; in experiment [8], inactive: 0.082; with IRAK-1-4 Inhibitor I, inactive: -0.033.

Values taken from the supplement of paper PMC10849652.
